Results are given in words; binding and its absence hold for the method and conditions named. In cells and extracts the contact can be indirect. A yes stands for co-enrichment or nearness to the bait. Other partners may have been found.
Biological target: 3Flag-STAU1 (UniProt O95793)
Test: affinity purification with mass spectrometry; 3flag-STAU1 transfected into HepG2 cells; proteins immunoprecipitated by anti-Flag antibody or IgG control analysed by mass spectrometry

Chains of the proteins cited; added tags and fusions are not shown.
UniProt O95793: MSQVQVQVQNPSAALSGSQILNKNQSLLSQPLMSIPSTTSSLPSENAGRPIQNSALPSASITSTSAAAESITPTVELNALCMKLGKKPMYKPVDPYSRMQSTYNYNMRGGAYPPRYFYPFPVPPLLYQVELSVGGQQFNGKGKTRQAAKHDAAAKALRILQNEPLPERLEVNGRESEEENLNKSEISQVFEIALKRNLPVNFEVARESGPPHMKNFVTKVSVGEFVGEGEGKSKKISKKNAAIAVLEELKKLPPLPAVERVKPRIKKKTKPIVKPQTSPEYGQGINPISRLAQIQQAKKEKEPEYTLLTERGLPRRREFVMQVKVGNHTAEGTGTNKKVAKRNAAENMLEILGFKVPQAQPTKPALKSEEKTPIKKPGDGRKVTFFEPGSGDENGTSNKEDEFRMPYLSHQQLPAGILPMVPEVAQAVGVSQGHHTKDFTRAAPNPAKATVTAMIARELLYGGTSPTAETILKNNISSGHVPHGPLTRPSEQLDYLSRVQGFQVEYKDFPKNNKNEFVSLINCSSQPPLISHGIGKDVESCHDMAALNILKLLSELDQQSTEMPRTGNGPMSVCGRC
UniProt O14929: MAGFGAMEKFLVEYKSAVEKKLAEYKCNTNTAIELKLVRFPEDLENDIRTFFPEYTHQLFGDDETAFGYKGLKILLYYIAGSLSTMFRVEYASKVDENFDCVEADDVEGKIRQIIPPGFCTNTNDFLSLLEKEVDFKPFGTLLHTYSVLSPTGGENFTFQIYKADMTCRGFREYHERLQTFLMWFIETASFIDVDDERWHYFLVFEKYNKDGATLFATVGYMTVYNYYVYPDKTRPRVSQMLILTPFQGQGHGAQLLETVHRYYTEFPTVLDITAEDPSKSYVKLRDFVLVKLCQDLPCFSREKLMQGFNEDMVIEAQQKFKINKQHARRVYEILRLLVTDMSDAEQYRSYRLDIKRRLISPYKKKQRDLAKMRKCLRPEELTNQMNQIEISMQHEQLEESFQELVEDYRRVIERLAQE
UniProt Q12962: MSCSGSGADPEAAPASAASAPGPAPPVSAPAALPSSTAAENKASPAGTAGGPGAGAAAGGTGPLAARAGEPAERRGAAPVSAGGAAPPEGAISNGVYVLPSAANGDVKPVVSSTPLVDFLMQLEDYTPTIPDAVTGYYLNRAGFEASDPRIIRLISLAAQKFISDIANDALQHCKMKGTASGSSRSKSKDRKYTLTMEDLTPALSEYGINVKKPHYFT

| binding | Substance |
| --- | --- |
| binds | HAT1 (found by mass spectrometry in the anti-Flag IP) (from UniProt O14929 1-419) |
| binds | TAF10 (found by mass spectrometry in the anti-Flag IP) (from UniProt Q12962 1-218) |
